For the experiment, the system named is P388 leukemia ip, CD2F1 mice, survival T/C. Description: NCI In Vivo Anticancer Drug Screen. Data for tumor model P388 Leukemia (intraperitoneal) in CD2F1 (CDF1) mice. The following applies: T/C endpoint: median survival time, higher T/C = longer survival.
Setting [1] is: dose: 200.0 mg/kg/injection, schedule: Q01DX009 (ip), vehicle: saline with Tween-80.
The mark [2] stands for this setting: dose: 200.0 mg/kg/injection, schedule: Q01DX005 (ip), vehicle: saline with Tween-80.
[3] abbreviates: dose: 100.0 mg/kg/injection, schedule: Q01DX005 (ip), vehicle: saline with Tween-80.
Setting [4] is: dose: 50.0 mg/kg/injection, schedule: Q01DX005 (ip), vehicle: saline.
[5] abbreviates: dose: 200.0 mg/kg/injection, schedule: Q01DX005 (ip), vehicle: saline.
Where [6] appears, read: dose: 200.0 mg/kg/injection, schedule: Q01DX005 (ip), vehicle: Klucel (hydroxypropylcellulose) (HPC).
The mark [7] stands for this setting: dose: 100.0 mg/kg/injection, schedule: Q01DX009 (ip), vehicle: Klucel (hydroxypropylcellulose) (HPC).
The mark [8] stands for this setting: dose: 200.0 mg/kg/injection, schedule: Q01DX009 (ip), vehicle: Klucel (hydroxypropylcellulose) (HPC).
[9] abbreviates: dose: 240.0 mg/kg/injection, schedule: Q01DX005 (ip), vehicle: saline with Tween-80.
The mark [10] stands for this setting: dose: 50.0 mg/kg/injection, schedule: Q01DX009 (ip), vehicle: saline.
The mark [11] stands for this setting: dose: 100.0 mg/kg/injection, schedule: Q01DX009 (ip), vehicle: saline.
Setting [12] is: dose: 200.0 mg/kg/injection, schedule: Q01DX009 (ip), vehicle: saline.

The list is a part of this screen's results and no random one: it gathers tests that were run many times, whatever their T/C, doses with no T/C, and many T/C values between a quarter and a half above the control. Further doses and runs are listed elsewhere. T/C: endpoint of the treated group in % of that of the vehicle group. Some entries give survivors of the animals treated and no T/C: the source holds a T/C of zero for them, seemingly a mark for toxic or unscored doses. Some doses without a T/C left all or most animals alive at the check, yet need not have been tolerated: the source hardly ever lists a survival T/C far under the control, and the zero likely stands for such cases as well. Survivors were counted at the toxicity check, usually on the fifth day, unless a day is given; later deaths do not show. Schedules are NCI's codes, read here as Q, the interval in days (D) or hours (H), X, the number of doses. Some doses were run more than once; the results are listed from low to high. Some structures stand for samples that the source files as different forms (salt, stereo form or complex); doses refer to the form tested. For survival time, this PubChem deposit counts one and a half times the control or more as active, and values a quarter to a half above the control carry no call in these data; other NCI protocols may use other cut-offs. Some T/C values are followed by the survivors on the day toxicity was checked, most often the fifth; without a count, all were alive then.

`O=C(CCN1CC1)Nc1cccc(NC(=O)CCN2CC2)c1`: the T/C (dose: 10.0 mg/kg/injection, schedule: Q01DX009 (ip), vehicle: Klucel (hydroxypropylcellulose) (HPC)) is given as 174, 229, 240, 243 % of control. The survivor count reads like this: (dose: 20.0 mg/kg/injection, schedule: Q01DX009 (ip), vehicle: Klucel (hydroxypropylcellulose) (HPC)) 4 of 6 and 5 of 6; (dose: 40.0 mg/kg/injection, schedule: Q01DX009 (ip), vehicle: Klucel (hydroxypropylcellulose) (HPC)) 2 of 6 and 4 of 6; (dose: 80.0 mg/kg/injection, schedule: Q01DX009 (ip), vehicle: Klucel (hydroxypropylcellulose) (HPC)) 0 of 6.
On to `CN1C(=O)N(C)C2(C#N)CC2([N+](=O)[O-])C1=O` (centres undefined), for which the survivor count runs as follows: (dose: 50.0 mg/kg/injection, schedule: Q01DX009 (ip), vehicle: saline with Tween-80) 0 of 6; (dose: 100.0 mg/kg/injection, schedule: Q01DX009 (ip), vehicle: saline with Tween-80) 0 of 6; under setting [1], 0 of 6.
With `CCCCCCCCCCCN(C)C`, the survivor count under setting [2] is on record as 0 of 6.
For `S=C(N\N=C/C(/C=C/c1ccccc1)=N\NC(=S)Nc1ccc(Cl)cc1)Nc1ccc(Cl)cc1`, the survivor count was 6 of 6 (dose: 100.0 mg/kg/injection, schedule: Q01DX001 (ip), vehicle: Klucel (hydroxypropylcellulose) (HPC)) and 6 of 6 (dose: 200.0 mg/kg/injection, schedule: Q01DX001 (ip), vehicle: Klucel (hydroxypropylcellulose) (HPC)).
`Cc1cc(C)cc(C(=O)NC(c2ccncc2)C(NC(=O)c2cc(C)cc(C)c2)c2ccncc2)c1` (centres undefined): the survivor count under setting [3] was 6 of 6 and the survivor count under setting [2] is reported as 6 of 6.
Turning to `Cc1ccc2c(c1O)NC(O)c1cccn1C2=O` (centres undefined), the survivor count (dose: 40.0 mg/kg/injection, schedule: Q01DX005 (ip), vehicle: distilled water + Tween-80) is given as 6 of 6.
Consider `c1cc[c]([Sn]2([c]3ccccc3)[O]CCNCC[O]2)cc1`, for which the T/C by setting is: (dose: 12.5 mg/kg/injection, schedule: Q01DX005 (ip), vehicle: saline) 140 % of control; under setting [4], 145 % of control. Besides, the survivor count under setting [5] was 0 of 6.
Consider `O=C1OC(=O)C2CCC12` (centres undefined), for which, under “dose: 400.0 mg/kg/injection, schedule: Q01DX009 (ip), vehicle: saline with Tween-80”, the survivor count is 2 of 6.
Take `N=C(N)c1ccc2[nH]c(/C=C/c3cc4cc(C(=N)N)ccc4o3)cc2c1`: the T/C (dose: 12.5 mg/kg/injection, schedule: Q04DX003 (ip), vehicle: suspension in saline) was 143 % of control. The survivor count runs as follows: (dose: 100.0 mg/kg/injection, schedule: Q04DX003 (ip), vehicle: suspension in saline) 5 of 6; (dose: 200.0 mg/kg/injection, schedule: Q04DX003 (ip), vehicle: suspension in saline) 0 of 6; (dose: 400.0 mg/kg/injection, schedule: Q04DX003 (ip), vehicle: suspension in saline) 0 of 6.
On to `O=C1CN(CO)C(=O)N1CO`, for which the T/C is 131 % of control (dose: 100.0 mg/kg/injection, schedule: Q01DX005 (ip), vehicle: Klucel (hydroxypropylcellulose) (HPC)); 128 and 135 % of control under setting [6].
With `S=C(NCCCN1CCN(CCCNC(=S)Nc2c3ccccc3nc3ccccc23)CC1)Nc1c2ccccc2nc2ccccc12`, the survivor count is listed as 2 of 6 (dose: 50.0 mg/kg/injection, schedule: Q01DX005 (ip), vehicle: saline with Tween-80); 0 of 6 under setting [3]; 0 of 6 under setting [2].
Turning to `COc1cccc2c1C(=O)c1c(O)c3c(c(O)c1C2=O)C[C@@](O)(C(=O)CO)C[C@@H]3OC1CC(NCc2ccccc2)C(O)C(C)O1` (some centres undefined), the T/C (dose: 0.2 mg/kg/injection, schedule: Q01DX009 (ip), vehicle: water) was 141 % of control; the T/C (dose: 0.39 mg/kg/injection, schedule: Q01DX009 (ip), vehicle: water) is 131 % of control; the T/C (dose: 0.78 mg/kg/injection, schedule: Q01DX009 (ip), vehicle: water) was 136 % of control. Further, the survivor count (dose: 12.5 mg/kg/injection, schedule: Q01DX009 (ip), vehicle: water) is listed as 6 of 6.
On to `O=C(O)CCCSC(=S)c1ccccc1`, for which the survivor count under setting [7] is 6 of 6.
Regarding `CCCCCCC(/C=C/c1ccc(Cl)cc1)=N\O`, the survivor count (dose: 50.0 mg/kg/injection, schedule: Q01DX009 (ip), vehicle: Klucel (hydroxypropylcellulose) (HPC)) is recorded as 6 of 6 and the survivor count under setting [8] is recorded as 6 of 6.
On to `CSc1c(Cl)cc(Cl)cc1C(=O)O`, for which, for the setting “dose: 25.0 mg/kg/injection, schedule: Q01DX009 (ip), vehicle: saline + alcohol”, the T/C is 125 % of control.
On to `Cc1nn(CCO)c(C)c1N=[N+]([O-])c1c(C)nn(CCO)c1C`, for which the survivor count (dose: 200.0 mg/kg/injection, schedule: Q04DX003 (ip), vehicle: Klucel (hydroxypropylcellulose) (HPC)) is 1 of 6.
For the compound `CCN1CC(O)Cc2ccccc21` (centres undefined), the survivor count under setting [9] is listed as 0 of 6.
With `CC1CN(C(=O)Nc2c(C(C)C)cccc2C(C)C)CC(C)O1` (centres undefined), the survivor count under setting [1] was 6 of 6.
`CC1=C(O)C(=O)[C@@H]2O[C@@H]2C1=O`: the T/C (dose: 3.0 mg/kg/injection, schedule: Q01DX009 (ip), vehicle: saline) was 130 % of control; the T/C (dose: 6.0 mg/kg/injection, schedule: Q01DX009 (ip), vehicle: saline) was 128 % of control; the T/C (dose: 12.0 mg/kg/injection, schedule: Q01DX007 (ip), vehicle: saline) is 130 % of control; the T/C (dose: 12.0 mg/kg/injection, schedule: Q01DX009 (ip), vehicle: saline) is 139 % of control. Further, the survivor count (dose: 24.0 mg/kg/injection, schedule: Q01DX009 (ip), vehicle: saline) is recorded as 5 of 6.
As for `O=C(O)C1(Cc2ccc(O)cc2)NCCS1` (centres undefined), the survivor count (dose: 400.0 mg/kg/injection, schedule: Q04DX002 (ip), vehicle: Klucel (hydroxypropylcellulose) (HPC)) was 3 of 6.
Regarding `COc1ccc(/C(C[P+](c2ccccc2)(c2ccccc2)c2ccccc2)=N/OC(C)(C)OC)cc1`, the survivor count reads like this: under setting [7], 0 of 6; under setting [8], 0 of 6.
`O=C1OCC2CC3C4C=CC(C4)C3C12` (centres undefined): the survivor count under setting [6] is 0 of 6.
On to `O=C1Nc2ccccc2C(O)(c2ccccc2)N1Cc1ccccc1` (centres undefined), for which the survivor count runs as follows: under setting [10], 6 of 6; under setting [11], 6 of 6.
For `Cc1ccc(S(=O)(=O)N/N=C/c2ccc(O)c(O)c2)cc1`, the T/C (dose: 400.0 mg/kg/injection, schedule: Q01DX009 (ip), vehicle: other) was 128 % of control [5 of 6 alive].
Turning to `C=C(CSc1ccc(C(=O)O)c([N+](=O)[O-])c1)c1ccc([N+](=O)[O-])cc1`, the survivor count was 6 of 6 under setting [11] and 6 of 6 under setting [12].
As to `COC1=C(OC)C(=O)C=CC1=O`, the survivor count runs as follows: (dose: 12.5 mg/kg/injection, schedule: Q01DX009 (ip), vehicle: saline) 3 of 6; (dose: 25.0 mg/kg/injection, schedule: Q01DX009 (ip), vehicle: saline) 0 of 6; under setting [10], 0 of 6.
As to `N/N=C(/N)C1=NOCC1`, under “dose: 400.0 mg/kg/injection, schedule: Q04DX002 (ip), vehicle: saline”, the survivor count is listed as 3 of 6.
For the compound `N=c1ccn(O)cc1`, the survivor count is, setting by setting: under setting [4], 0 of 6; under setting [10], 3 of 6 and 5 of 6; (dose: 100.0 mg/kg/injection, schedule: Q01DX005 (ip), vehicle: saline) 0 of 6; under setting [11], 0 of 6; under setting [5], 0 of 6; under setting [12], 0 of 6.
Regarding `CCc1cccc2c(NCCCCCCNc3c4ccccc4nc4c(CC)cccc34)c3ccccc3nc12`, the T/C (dose: 10.0 mg/kg/injection, schedule: Q01DX009 (ip), vehicle: other) was 128 % of control. The survivor count (dose: 20.0 mg/kg/injection, schedule: Q01DX009 (ip), vehicle: other) is listed as 6 of 6.
On to `CCOC(=O)C1=C(C(=O)c2ccccc2)C(c2ccccc2[N+](=O)[O-])C(C(=O)c2ccccc2)=C(C(=O)OCC)N1`, for which, under setting [9], the survivor count is 2 of 6.

Values taken from PubChem BioAssay AID330 (DTP/NCI, 2004).
